No constants are given. Whether binding was seen depends on the method and setting. Binding seen in cells or lysates may run through a third protein. Binding calls can cover weak binding; strength is not graded here. Sequences can lack the tags named with a protein.
Target: T1, IAA3 fused to the C-terminal fragment of luciferase (c-LUC) (Arabidopsis thaliana) (UniProt Q38822)
T1 sequence: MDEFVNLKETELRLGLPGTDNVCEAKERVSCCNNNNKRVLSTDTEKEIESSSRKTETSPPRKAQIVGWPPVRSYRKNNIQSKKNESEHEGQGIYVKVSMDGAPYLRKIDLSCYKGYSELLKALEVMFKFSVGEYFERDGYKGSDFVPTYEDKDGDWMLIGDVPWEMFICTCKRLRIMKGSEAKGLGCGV
Assay: split reporter; firefly luciferase complementation imaging (LCI) with truncated PIF4 (nLUC) and truncated IAA3 (cLUC), Fig 4G-I; host not stated for these panels

binding | Substance
binds | PIF4ΔC (PIF4 without the bHLH domain) (Arabidopsis thaliana) (domain or fragment)
binds | PIF4ΔN (PIF4 without the APB domain) (Arabidopsis thaliana) (domain or fragment)

From publication PMC7924758, “IAA3-mediated repression of PIF proteins coordinates light and auxin signaling in Arabidopsis” (PLoS Genetics, 2021)
